Each number is a percent effect as filed. How 0% and 100% were set is not recorded. Most values in the screen are low, and negative values occur. The compounds are a random part of those screened. A dash means the value is not listed here; it may have been measured.

Chains of the proteins cited; added tags and fusions are not shown. Residues count along the entry.
UniProt P9WFT3, whole entry: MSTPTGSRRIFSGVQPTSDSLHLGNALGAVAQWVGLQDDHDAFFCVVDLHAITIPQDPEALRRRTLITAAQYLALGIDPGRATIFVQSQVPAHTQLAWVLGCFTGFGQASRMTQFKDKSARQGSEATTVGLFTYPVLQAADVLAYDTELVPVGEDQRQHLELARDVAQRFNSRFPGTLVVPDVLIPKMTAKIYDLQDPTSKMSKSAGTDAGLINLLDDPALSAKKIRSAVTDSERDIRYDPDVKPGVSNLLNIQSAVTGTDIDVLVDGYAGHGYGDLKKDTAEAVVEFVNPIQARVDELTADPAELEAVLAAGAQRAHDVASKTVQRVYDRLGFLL
UniProt I6X8D2, whole entry: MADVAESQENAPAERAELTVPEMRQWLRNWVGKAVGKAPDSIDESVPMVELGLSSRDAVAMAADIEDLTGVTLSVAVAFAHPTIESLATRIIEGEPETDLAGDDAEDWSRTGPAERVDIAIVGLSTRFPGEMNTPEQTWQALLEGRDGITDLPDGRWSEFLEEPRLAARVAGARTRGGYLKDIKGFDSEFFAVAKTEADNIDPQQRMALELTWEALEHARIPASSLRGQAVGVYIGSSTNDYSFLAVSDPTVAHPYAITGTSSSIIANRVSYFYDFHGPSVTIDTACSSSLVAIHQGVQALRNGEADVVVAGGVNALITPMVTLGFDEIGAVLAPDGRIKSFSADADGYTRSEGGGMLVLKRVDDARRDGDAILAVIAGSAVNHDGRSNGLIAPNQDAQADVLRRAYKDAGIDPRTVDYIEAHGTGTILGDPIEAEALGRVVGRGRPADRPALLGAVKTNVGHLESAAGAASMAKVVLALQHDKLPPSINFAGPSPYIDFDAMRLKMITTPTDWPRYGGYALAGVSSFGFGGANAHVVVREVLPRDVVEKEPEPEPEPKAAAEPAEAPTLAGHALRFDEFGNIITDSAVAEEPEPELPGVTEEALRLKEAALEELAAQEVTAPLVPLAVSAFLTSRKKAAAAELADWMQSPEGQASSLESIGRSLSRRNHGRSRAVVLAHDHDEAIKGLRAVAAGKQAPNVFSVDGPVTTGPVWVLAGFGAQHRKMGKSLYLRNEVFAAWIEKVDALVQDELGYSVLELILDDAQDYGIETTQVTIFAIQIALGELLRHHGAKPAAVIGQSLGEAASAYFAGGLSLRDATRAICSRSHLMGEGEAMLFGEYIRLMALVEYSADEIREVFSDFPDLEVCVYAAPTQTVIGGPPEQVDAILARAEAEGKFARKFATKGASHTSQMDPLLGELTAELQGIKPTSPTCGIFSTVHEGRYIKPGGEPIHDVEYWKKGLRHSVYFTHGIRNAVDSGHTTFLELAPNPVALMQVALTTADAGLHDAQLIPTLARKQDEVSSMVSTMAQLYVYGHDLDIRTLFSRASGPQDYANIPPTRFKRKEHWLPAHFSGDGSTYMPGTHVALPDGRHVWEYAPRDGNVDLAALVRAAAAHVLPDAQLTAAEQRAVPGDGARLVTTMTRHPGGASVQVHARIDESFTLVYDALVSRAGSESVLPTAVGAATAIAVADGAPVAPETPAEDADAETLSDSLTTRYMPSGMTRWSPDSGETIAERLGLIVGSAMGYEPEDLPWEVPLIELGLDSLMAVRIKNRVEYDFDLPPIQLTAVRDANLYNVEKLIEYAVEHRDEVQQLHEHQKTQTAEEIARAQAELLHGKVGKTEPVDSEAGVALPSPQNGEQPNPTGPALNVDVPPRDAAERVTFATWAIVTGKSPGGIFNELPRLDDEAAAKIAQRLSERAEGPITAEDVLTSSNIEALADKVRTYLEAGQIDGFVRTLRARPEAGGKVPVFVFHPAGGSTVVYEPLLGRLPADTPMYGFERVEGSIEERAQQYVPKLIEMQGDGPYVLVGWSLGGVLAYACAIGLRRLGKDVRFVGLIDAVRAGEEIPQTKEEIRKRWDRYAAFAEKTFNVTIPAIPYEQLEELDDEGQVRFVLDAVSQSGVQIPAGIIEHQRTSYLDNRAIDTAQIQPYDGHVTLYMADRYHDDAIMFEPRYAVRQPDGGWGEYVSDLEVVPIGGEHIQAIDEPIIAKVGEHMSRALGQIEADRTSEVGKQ
UniProt A4I591, 1-473: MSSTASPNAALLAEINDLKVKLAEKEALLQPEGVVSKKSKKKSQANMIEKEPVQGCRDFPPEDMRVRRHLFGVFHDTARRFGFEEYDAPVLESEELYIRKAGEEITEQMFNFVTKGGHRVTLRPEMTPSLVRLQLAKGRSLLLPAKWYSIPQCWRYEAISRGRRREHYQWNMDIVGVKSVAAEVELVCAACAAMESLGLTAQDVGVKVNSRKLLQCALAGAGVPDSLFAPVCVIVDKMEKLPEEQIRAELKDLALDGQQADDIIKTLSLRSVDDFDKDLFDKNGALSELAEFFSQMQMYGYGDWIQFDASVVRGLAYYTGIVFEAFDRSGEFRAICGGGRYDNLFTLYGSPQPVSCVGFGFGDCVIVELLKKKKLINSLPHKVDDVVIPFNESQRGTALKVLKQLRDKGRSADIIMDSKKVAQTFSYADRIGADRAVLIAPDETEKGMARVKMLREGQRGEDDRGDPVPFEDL
UniProt Q8IDJ8, 1-583: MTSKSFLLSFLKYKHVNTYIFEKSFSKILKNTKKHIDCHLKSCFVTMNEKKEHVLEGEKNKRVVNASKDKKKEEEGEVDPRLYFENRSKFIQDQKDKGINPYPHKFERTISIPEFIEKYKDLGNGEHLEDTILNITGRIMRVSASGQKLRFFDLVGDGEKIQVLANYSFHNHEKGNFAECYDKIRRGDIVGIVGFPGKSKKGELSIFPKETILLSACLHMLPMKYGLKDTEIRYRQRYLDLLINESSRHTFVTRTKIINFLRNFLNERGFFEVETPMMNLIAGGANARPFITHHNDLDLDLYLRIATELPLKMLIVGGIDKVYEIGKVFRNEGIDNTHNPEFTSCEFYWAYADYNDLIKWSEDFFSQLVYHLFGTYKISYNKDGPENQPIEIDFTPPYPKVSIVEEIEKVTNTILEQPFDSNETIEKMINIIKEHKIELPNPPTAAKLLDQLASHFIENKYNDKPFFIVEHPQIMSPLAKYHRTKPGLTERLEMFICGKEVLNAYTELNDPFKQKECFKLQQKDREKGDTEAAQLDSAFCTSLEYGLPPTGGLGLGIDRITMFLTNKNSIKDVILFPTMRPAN

MtTrpRS: 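Tryptophan-tRNA ligase, Mycobacterium tuberculosis (UniProt P9WFT3). Enzyme assay of tryptophanyl-tRNA synthetase; the read-out is not stated. Compounds at 10 µM. Higher most likely means stronger inhibition; the record gives no direction and few retests gave an IC50. About 65,000 compounds were tested under these conditions; 0.098% (about 64) showed 50% or more at least once.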
Pks13 thioesterase: 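Enzyme assay of the thioesterase domain of polyketide synthase 13; the read-out is not stated. Target: Polyketide synthase Pks13, Mycobacterium tuberculosis (UniProt I6X8D2). Tested at 30 µM. Higher reads as stronger inhibition (inferred from which compounds were picked for retests). Size under these conditions: about 67,000 compounds, about 300 of them at 50% or above in at least one test.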
LiHisRS: 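Histidine-tRNA ligase, Leishmania infantum (UniProt A4I591). Enzyme assay of histidyl-tRNA synthetase; the read-out is not stated. Concentration: 30 µM. Higher reads as stronger inhibition (inferred: compounds with an IC50 in retests scored well above the rest). The assay is labelled LdHisRS but filed under L. infantum. Size under these conditions: about 69,000 compounds, about 410 of them at 50% or above in at least one test.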
PfKRS1: 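Enzyme assay of the cytosolic lysyl-tRNA synthetase in 384-well plates, read by luminescence. Target: Lysine-tRNA ligase, Plasmodium falciparum 3D7 (UniProt Q8IDJ8). Concentration: 30 µM. Higher reads as stronger inhibition, judged from the few compounds that gave an IC50. Of about 69,000 compounds tested this way, about 49 (0.071%) reached 50% or more in at least one test.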

structure	MtTrpRS	Pks13 thioesterase	LiHisRS	PfKRS1
Cc1cccc(CC2CCCN(C(=O)C3CCOCC3)C2)n1 (stereo not given)	-0.7536%	5.558%	1.053%	-0.1152%
O=C(Nc1nnc[nH]1)C(c1cccc(F)c1)N1CCOCC1 (stereo not given)	2.679%	-6.816%	15.18%	-1.395%
Cc1cccnc1[C@H](C)Nc1nc(-c2cccnc2)nc2c1CNC2	5.263%	-54.29%	54.29%	0.3736%
CN(C)c1cncc(C2CCCN(c3cnccn3)C2)n1 (stereo not given)	-0.651%	26.48%	17.27%	-0.1424%
COc1ccc(CNc2cccnc2-n2cccn2)c(OC)c1OC	0.4388%	11.2%	8.163%	-0.5331%
c1cc(CNCCC2CCCO2)ccn1 (stereo not given)	-0.867%	-0.3152%	3.665%	-3.199%
O=C(NCc1cccnc1)[C@@H]1C[C@H]2[C@H](CCN2c2ncccn2)O1	-5.838%	5.572%	-1%	3.521%
CCN(CC)S(=O)(=O)c1ccc(C(=O)NC(C)(C)C)cc1	-2.168%	-0.2107%	32.74%	-0.4816%
CN(Cc1ccsc1)C(=O)CN1CCCCC1Cn1cccn1 (stereo not given)	-0.5696%	-16.96%	16.53%	14.82%
Cc1c(C(=O)N2CCC(c3nc(C)n4ccsc34)CC2)cnn1C	-	12.2%	20.62%	3.818%
Cc1ocnc1C(=O)N(C)[C@@H]1CC[C@@H](Oc2ccccc2)[C@@H]1O	-6.662%	-14.76%	2.685%	0.9929%
Cn1ncc(C(=O)N2CCOCC2)c1Cl	-0.6477%	4.005%	5.172%	4.97%
Cc1nn(C)c2sc(C(=O)N3CCCC(n4ccnc4C)C3)cc12 (stereo not given)	-1.589%	-30.91%	20%	6.651%
Cn1cc(CN2CCCC23CCN(C(=O)c2cccs2)CC3)cn1	-4.01%	5.312%	-1.818%	6.239%
CC(C)NC(=O)N1CC[C@@H](N(C)C)[C@@H]1Cc1ccncc1	-1.443%	-22.89%	13.16%	3.765%
CCN1C[C@H]2C3(CCN(S(C)(=O)=O)CC3)CC[C@@]2(C(=O)N(C)C)C1	-5.805%	-16.78%	12%	0.9529%
Cc1cc(C)nc(NCc2cc3n(n2)CCCN(C(=O)C2CCC2)C3)n1	2.532%	-7.962%	13.83%	-4.807%
NC(=O)c1cnc(NC(=O)CCc2ccco2)c(Cl)c1	-2.017%	-24.9%	14.29%	8.959%
CCCn1cc(S(=O)(=O)N[C@H]2CN(CCO)C[C@@H]2C2CC2)cn1	-1.083%	-9.467%	10%	2.059%
c1ccc(CO[C@H]2CC[C@H]3[C@H]2OCCN3Cc2nccs2)nc1	-2.604%	9.18%	5.714%	2.411%
CN(C)c1ncc(CN2CCC(O)(c3ccccc3F)CC2)cn1	-0.9675%	12.37%	7.246%	-0.01423%
CCn1c(=O)nc2n1C(=O)N(c1cccc(Cl)c1)C2	1.407%	-42.77%	7.767%	4.443%
Cc1nc(CN2CCCN(CC(=O)N(C)CCC#N)CC2)no1	0.4409%	-25.19%	6.849%	1.551%
Cc1ocnc1C(=O)N1CC[C@@]2(O)CCN(C(=O)N3CCCC3)C[C@H]2C1	4.49%	-3.864%	21.24%	5.093%
CS(=O)(=O)CCSc1cccc(C#N)c1	-2.275%	-0.608%	16.35%	1.255%
Cc1ccc(S(=O)(=O)NCCNC(=O)c2ccoc2)cc1F	2.664%	-1.985%	12.62%	-1.001%
COCCn1ccnc1C1CCCN(C(=O)c2cc(F)cc(F)c2)C1 (stereo not given)	1.935%	-1.254%	22.34%	1.314%
O=C(c1ccncc1)N1C[C@@H]2CC[C@H](C1)N(S(=O)(=O)c1cccnc1)C2	-4.078%	-25.78%	24.1%	2.414%
COc1cc(CNCc2ccnc(N3CCCCC3)c2)cc(OC)c1	-0.4011%	-15.9%	19.44%	0.261%
COc1cccc2c1OCC(CNc1cc(N)nc(SC)n1)C2 (stereo not given)	2.051%	-12.15%	12.9%	1.204%
CNC(=O)[C@H]1C[C@@H]2CN(Cc3c(C)noc3C)C[C@@H]2N1C(C)=O	-1.881%	-3.113%	10%	5.908%
c1cc2c(cc1C1(CNC3=NCCN3)CCCC1)OCCO2	-3.43%	-16.89%	27.14%	1.521%
CCc1n[nH]c(C2CN(C(=O)Cn3ccccc3=O)CCO2)n1 (stereo not given)	4.971%	-11.88%	21.62%	4.67%
Cc1nc(COC[C@@]23CCC[C@@H]2CN(CC2CCOCC2)C3)cs1	1.082%	-23.07%	15.79%	3.422%
Nc1nc2c(c(N3CCCC3)n1)CCN(Cc1ccccn1)CC2	8.628%	13.68%	-2.632%	0.929%
COC(=O)c1ccc(Cl)c(NS(=O)(=O)c2cnn(C)c2)c1	-4.131%	-0.6034%	8.333%	8.034%
CN(C)C(=O)COCC1C[C@@H]2OCCN(Cc3ccco3)[C@H]2C1 (stereo not given in full)	0.2114%	-27.31%	8.772%	6.592%

Some entries from above, unchanged:

| structure | MtTrpRS | Pks13 thioesterase | LiHisRS | PfKRS1 |
|---|---|---|---|---|
| `COCCn1ccnc1C1CCCN(C(=O)c2cc(F)cc(F)c2)C1` (stereo not given) | 1.935% | -1.254% | 22.34% | 1.314% |
| `Cc1cc(C)nc(NCc2cc3n(n2)CCCN(C(=O)C2CCC2)C3)n1` | 2.532% | -7.962% | 13.83% | -4.807% |

Source: ChEMBL document CHEMBL3988442, “University of Dundee, Small-Polar-MMV Screening Library” (2021).